Reference: the supplement of paper PMC9015667
Where a name gives a salt, the structure may show the parent alone. This is one part of the list. Single values are uncertain, as repeats are few or missing.

Assays:
Assay in all cases: reduction in cell viability relative to untreated/vehicle; higher = more growth inhibition
Settings in all cases: 200 nM; 72 h
M229P = test system: M229P (parental melanoma line)
M229R = test system: M229R (matched melanoma line resistant to BRAF inhibitors)
M238P = test system: M238P (parental melanoma line)
M238R = test system: M238R (matched melanoma line resistant to BRAF inhibitors)
M249P = test system: M249P (parental melanoma line)
M249R = test system: M249R (matched melanoma line resistant to BRAF inhibitors)
UACC62P = test system: UACC62P (parental melanoma line)
UACC62R = test system: UACC62R (matched melanoma line resistant to BRAF inhibitors)

Compound	reduction in cell viability (M229P) [%]	reduction in cell viability (M229R) [%]	reduction in cell viability (M238P) [%]	reduction in cell viability (M238R) [%]	reduction in cell viability (M249P) [%]	reduction in cell viability (M249R) [%]	reduction in cell viability (UACC62P) [%]	reduction in cell viability (UACC62R) [%]
COc1ccc(-c2coc3cc(O)cc(O)c3c2=O)cc1 [Biochanin A]	< 0	< 0	< 0	< 0	< 0	< 0	< 0	< 0
Cc1cc(Nc2nc(N[C@@H](C)c3ccc(F)cc3)c(C#N)cc2F)n[nH]1	7.62	30.1	21.8	< 0	< 0	16.3	16.1	60.5
CC(=O)OCCN1C(=O)c2c(C)nc3ccc(S(=O)(=O)N4CCOCC4)cc3c2C1=O [Ivachtin]	< 0	< 0	< 0	< 0	< 0	< 0	< 0	< 0
O=C(O)c1ccc(-c2cc3cccnc3c(-c3ccc4nonc4c3)n2)cc1	< 0	< 0	< 0	< 0	< 0	< 0	< 0	< 0
C=CCc1cc(OC)c(O)c(C(=O)NCCO)c1 [Alibendol]	< 0	< 0	< 0	< 0	< 0	< 0	< 0	< 0
CN(C)c1ccccc1CN1CCCN(Cc2ccccc2N(C)C)C1c1ccncc1	< 0	< 0	< 0	< 0	< 0	< 0	< 0	< 0
COc1ccc(-n2nc(C(N)=O)c3c2C(=O)N(c2ccc(N4CCCCC4=O)cc2)CC3)cc1 [Apixaban]	< 0	< 0	< 0	< 0	< 0	< 0	< 0	< 0
CC[C@H](C)[C@H](N)C1=N[C@H](C(=O)N[C@@H](CC(C)C)C(=O)N[C@H](CCC(=O)[O-])C(=O)N[C@H](C(=O)N[C@H]2CCCCNC(=O)[C@H](CC(N)=O)NC(=O)[C@@H](CC(=O)[O-])NC(=O)[C@H](Cc3cnc[nH]3)NC(=O)[C@@H](Cc3ccccc3)NC(=O)[C@H]([C@@H](C)CC)NC(=O)[C@@H](CCCN)NC2=O)[C@@H](C)CC)CS1.[Zn+2] [Bacitracin Zinc]	< 0	< 0	< 0	< 0	< 0	< 0	< 0	< 0
COC(=O)[C@H](c1ccccc1Cl)N1CCc2sccc2C1 [Clopidogrel bisulfate]	< 0	< 0	< 0	< 0	< 0	< 0	< 0	< 0
Oc1ccc(C2CCN(c3ccnc4ccccc34)CC2)cc1O	< 0	< 0	< 0	< 0	< 0	< 0	< 0	< 0
O=c1[nH]c(=O)n([C@H]2C[C@H](O)[C@@H](CO)O2)cc1I [Idoxuridine]	< 0	< 0	< 0	< 0	7.68	< 0	< 0	< 0
CCOC(=O)O[C@]1(C(=O)OCCl)CC[C@H]2[C@@H]3CCC4=CC(=O)C=C[C@]4(C)[C@H]3[C@@H](O)C[C@@]21C [Loteprednol etabonate]	< 0	< 0	< 0	< 0	16.1	< 0	4.95	< 0
Cn1cc(CNCC2CCN(c3ncc(C(=O)NO)cn3)CC2)c2ccccc21 [Quisinostat hydrochloride]	80.8	69.8	80	74.9	84.4	82.6	83.6	79
C[C@@H]1CN(c2c(F)c(N)c3c(=O)c(C(=O)O)cn(C4CC4)c3c2F)C[C@H](C)N1 [Sparfloxacin]	< 0	< 0	< 0	< 0	< 0	< 0	< 0	< 0
CCC(CC)[C@H](NC(C)=O)[C@@H]1[C@H](O)[C@@H](C(=O)O)C[C@H]1NC(=N)N [Peramivir]	< 0	< 0	< 0	< 0	< 0	< 0	< 0	< 0
Cc1ccc(C(=O)N(CCCN)[C@@H](c2oc3cc(Cl)ccc3c(=O)c2Cc2ccccc2)C(C)C)cc1	24.8	33.8	77.6	69.3	39.1	39.1	50	75.4
O=c1c(O)c(-c2ccc(O)cc2)oc2cc(O)cc(O)c12 [Kaempferol]	< 0	< 0	< 0	< 0	< 0	< 0	< 0	< 0
CC(C)[C@H](N)C(=O)OCCOCn1cnc2c(=O)nc(N)[nH]c21 [Valaciclovir]	< 0	< 0	< 0	< 0	< 0	< 0	< 0	< 0
Cc1cc2c(F)c(Oc3ncnn4cc(OC[C@@H](C)O)c(C)c34)ccc2[nH]1 [Brivanib]	< 0	< 0	< 0	< 0	< 0	< 0	< 0	< 0
Cn1c(NCCN(CCO)CCCc2ccc([N+](=O)[O-])cc2)cc(=O)n(C)c1=O [Nifekalant]	< 0	< 0	< 0	< 0	< 0	3.2	< 0	< 0
Oc1ncnc2[nH]ncc12 [Allopurinol]	< 0	< 0	< 0	< 0	< 0	< 0	< 0	< 0

Compound	reduction in cell viability (M229P) [%]	reduction in cell viability (M229R) [%]	reduction in cell viability (M238P) [%]	reduction in cell viability (M238R) [%]	reduction in cell viability (M249P) [%]	reduction in cell viability (M249R) [%]	reduction in cell viability (UACC62P) [%]	reduction in cell viability (UACC62R) [%]
Fc1ccc(CNc2ncnc3ccc(F)cc23)cc1 [Spautin-1]	< 0	< 0	< 0	< 0	< 0	< 0	< 0	< 0
CCc1cccc2c3c([nH]c12)C(CC)(CC(=O)O)OCC3 (stereo unspecified) [Etodolac]	< 0	< 0	< 0	< 0	< 0	< 0	< 0	< 0
O=S(=O)(O)CCS [Sodium 2-mercaptoethanesulfonate]	< 0	7.11	< 0	< 0	< 0	< 0	< 0	< 0
C[C@]12CC[C@@H]3c4ccc(O)cc4CC[C@H]3[C@@H]1CCC2=O [Estrone]	0.11	< 0	< 0	< 0	< 0	< 0	7.46	< 0
COc1cccc2c1C(=O)c1c(O)c3c(c(O)c1C2=O)C[C@@](O)(C(C)=O)C[C@@H]3O[C@H]1C[C@H](N)[C@H](O)[C@H](C)O1 [Daunorubicin]	< 0	< 0	< 0	< 0	< 0	< 0	< 0	< 0
Cc1ccccc1C(C(=O)NC1CCCCC1)N(C(=O)CNc1ccc(C#N)cc1)c1cccc(F)c1 (stereo unspecified)	< 0	< 0	< 0	< 0	< 0	< 0	< 0	< 0
CCc1cc(-c2n[nH]c(C)c2-c2ccc3c(c2)OCCO3)c(O)cc1O	< 0	< 0	< 0	< 0	< 0	< 0	< 0	1.07
CCC1(C)CC(=O)NC1=O (stereo unspecified) [Ethosuximide]	< 0	< 0	< 0	< 0	< 0	< 0	< 0	< 0
CCn1cc(C(=O)O)c(=O)c2ccc(C)nc21 [Nalidixic acid]	< 0	< 0	< 0	< 0	< 0	< 0	< 0	< 0
COC(=O)[C@@H]1CC2=CC(=O)CC[C@]2(C)[C@@]23O[C@@H]2C[C@@]2(C)[C@@H](CC[C@@]24CCC(=O)O4)[C@H]13 [Eplerenone]	< 0	< 0	< 0	< 0	< 0	< 0	< 0	< 0
O=C1NC(=O)/C(=C\c2ccc3nccnc3c2)S1	< 0	< 0	< 0	< 0	< 0	< 0	< 0	< 0
Cc1onc(-c2ccccc2Cl)c1C(=O)N[C@@H]1C(=O)N2[C@@H]1SC(C)(C)[C@@H]2C(=O)O [Sodium cloxacillin]	< 0	< 0	< 0	< 0	< 0	< 0	5.91	< 0
Nc1cccc2c1C(=O)N(C1CCC(=O)NC1=O)C2=O (stereo unspecified) [Pomalidomide]	< 0	12.9	< 0	< 0	< 0	< 0	< 0	< 0
NS(=O)(=O)c1cc2c(cc1Cl)NC(C(Cl)Cl)NS2(=O)=O (stereo unspecified) [Trichlormethiazide]	< 0	< 0	< 0	< 0	< 0	< 0	< 0	< 0
NC(=O)c1noc([C@H](CCCC2CCCCC2)CC(=O)NO)n1	< 0	< 0	< 0	< 0	< 0	1.61	< 0	< 0
Cc1cccc(/C=N/Nc2cc(N3CCOCC3)nc(OCCc3ccccn3)n2)c1	< 0	13.7	10.5	< 0	40.4	47.3	1.74	2.76
CC(C)NCC(O)c1ccc(O)c(O)c1 (stereo unspecified) [Isoproterenol]	< 0	< 0	< 0	< 0	< 0	< 0	< 0	< 0
O=C(CCCN1CCN(c2ccc(F)cc2)CC1)NC1c2ccccc2CSc2ccccc21 (stereo unspecified) [Monatepil]	< 0	< 0	< 0	< 0	< 0	< 0	< 0	< 0
C[C@@H](N[C@H]1CCCC[C@@H]1NC(=O)c1ccc(Cl)cc1)c1cccc2ccccc12 [Calhex-231]	< 0	< 0	< 0	< 0	0.26	< 0	< 0	3.6
CC1=C(C(=O)Nc2cc3cn[nH]c3cc2F)C(c2ccc(Cl)cc2F)N=C(c2ccnc(Cl)c2)N1 (stereo unspecified)	< 0	8.55	< 0	< 0	< 0	< 0	< 0	< 0
O=C(NCCCNc1nc(Nc2cccc(NC(=O)N3CCCC3)c2)ncc1I)c1cccs1	10.6	< 0	< 0	21.6	< 0	< 0	21.1	9.13

Entries from the list above that have a thiophene ring, fused or not, in the order listed:
Compound	reduction in cell viability (M229P) [%]	reduction in cell viability (M229R) [%]	reduction in cell viability (M238P) [%]	reduction in cell viability (M238R) [%]	reduction in cell viability (M249P) [%]	reduction in cell viability (M249R) [%]	reduction in cell viability (UACC62P) [%]	reduction in cell viability (UACC62R) [%]
COC(=O)[C@H](c1ccccc1Cl)N1CCc2sccc2C1 [Clopidogrel bisulfate]	< 0	< 0	< 0	< 0	< 0	< 0	< 0	< 0
O=C(NCCCNc1nc(Nc2cccc(NC(=O)N3CCCC3)c2)ncc1I)c1cccs1	10.6	< 0	< 0	21.6	< 0	< 0	21.1	9.13
